Data taken from PubChem BioAssay AID504444 (National Center for Advancing Translational Sciences (NCATS), 2011).
Hit rate of the full screen: of about 360,000 compounds, about 7,500 (2.1%) were called active. The shares of active, inactive and inconclusive entries below differ from those in the screen. The call rests on the fitted dose curve; in most records, active means well fitted inhibition curve with a large enough effect; inconclusive means small, poorly fitted or top-dose-only effect, or effect the other way; inactive means flat fitted curve, though single readings scatter. A potency beside an inconclusive call is a rough fit, not a confirmed value.

Assay: Nrf2 qHTS screen for inhibitors; further: nearly all actives have a fitted effect of over 60% in size
Details: A549 ARE-Fluc reporter, luciferase luminescence, 18-24 h; series mostly up to 46 µM
Summary of the method: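 In this cell-based qHTS, ARE-driven firefly luciferase in A549 cells reports Nrf2 activity; the luminescent signal after BugLite lysis is the measured value, with a prior CellTiter-Fluor read for cell health.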
Potency means the concentration at half of the fitted maximal effect.

Compound | Potency
CC(C)Sc1ncnc2c1cnn2-c1ccccc1 | inconclusive: 20.6 µM [activator, partial curve]
CC(C)N(Cc1ccccc1)C(=S)NC1CCCCC1 | inconclusive: 14.6 µM [falling, partial curve, poor fit]
COc1ccc(NS(=O)(=O)c2ccc(NC(=O)C3CCCO3)cc2)cc1 (centres undefined) | inconclusive: 20 µM [falling, partial curve, poor fit]
CC(=O)c1c(C)[nH]c(C(=O)Nc2ccc(Cl)c(S(=O)(=O)N(C)C)c2)c1C | inconclusive: 1.46 µM [activator, partial curve]
N#Cc1nc(NCC(F)F)c2ncn(-c3cc(F)cc(F)c3)c2n1 | inconclusive: 20.6 µM [falling, single point]
CCc1nc2ccc(C(=O)N3CCN(c4cccc(C(F)(F)F)c4)CC3)cc2nc1CC | inactive
CCCCOc1ccccc1C1CC(=O)NC2=C1C(=O)CCC2 (centres undefined) | inconclusive: 6.51 µM [falling, single point]
CCCCc1c(C)nc2ccccc2c1SCCC(=O)O | inconclusive: 23.1 µM [falling, single point]
Cc1ccc2c(CNC3CCCC3)c(C(=O)O)n(Cc3ccc(F)cc3)c2c1 | inconclusive: 29.1 µM [activator, single point]
COCCSc1nnc(NC(=O)Cc2ccccc2OC)s1 | inconclusive: 23.1 µM [falling, partial curve, poor fit]
O=C(CCl)Nc1c2c(nn1-c1ccccc1)CSC2 | inconclusive: 32.6 µM [falling, partial curve, poor fit]
CCn1nc(C)c(CNC(=O)c2cc(COc3ccc(C)nc3)on2)c1C | active: 23.1 µM
CC1CCN(c2ccc(-c3nc(-c4ccccc4)no3)cc2[N+](=O)[O-])CC1 | inconclusive: 8.2 µM [activator, partial curve]
CCc1cccc(C)c1NC(=O)CCCN1C(=O)C(c2ccccc2)Oc2cccnc21 (centres undefined) | inactive
C[C@]12CCC(=O)C=C1CC[C@@H]1[C@@H]2[C@@H](O)C[C@]2(C=O)[C@@H](C(=O)CO)CC[C@@H]12 | inconclusive: 0.259 µM [falling, full curve, poor fit]
C/C(=N\Nc1nc(Cl)c(Cl)cc1Cl)c1ccc(S(=O)(=O)NCc2ccco2)cc1 | inconclusive: 29.1 µM [falling, single point]
NS(=O)(=O)c1ccc(CCNC(=O)Cc2cccs2)cc1 | inconclusive: 5.17 µM [activator, partial curve]
O=C(Cc1ccc([N+](=O)[O-])cc1)NCc1ccccc1Cl | inactive
COC(=O)N1C(=O)[C@](c2ccc(Cl)cc2)(C(C)C)N1C(=O)OC | inconclusive: 25.9 µM [activator, partial curve]
CCc1cccc(C)c1NC(=O)CCCn1nc(C)c2sc3ccccc3c2c1=O | inconclusive: 16.4 µM [activator, partial curve, poor fit]
O=C1OCC2=C1C(c1ccc3c(c1)OCO3)Sc1ccccc1N2 (centres undefined) | inconclusive: 29.1 µM [falling, single point]
Cc1cc(N2CCCCC2)nc2ccc(NC(=O)/C=C/c3ccc(OCCC(C)C)cc3)cc12 | inconclusive: 5.17 µM [falling, partial curve, poor fit]

Compound | Potency
C=CCC[C@H](Cc1ccc(F)cc1)C(=O)OC[C@@H](NC(=O)[C@@H](CC=C)CC(=O)N(CCO)Cc1ccccc1)C(C)(C)C | active: 3.26 µM
Cc1cccc(C)c1NC(=O)c1ccc2c(c1)CCN2S(C)(=O)=O | inconclusive: 29.1 µM [falling, single point]
COc1cc(C(C(=O)NC2CCCCC2)N(C(=O)Cc2c[nH]c3ccccc23)c2ccc(C)cc2)cc(OC)c1OC (centres undefined) | inconclusive: 18.4 µM [falling, single point]
CCOC(=O)c1ccc(NC(=O)c2ccc(CN3C(=O)CCn4nc(C)cc43)cc2)cc1 | inconclusive: 4.11 µM [activator, full curve, poor fit]
CCCCN(C(=O)c1ccc(S(=O)(=O)N2CCCC2)cc1)C1CCS(=O)(=O)C1 (centres undefined) | inconclusive: 2.06 µM [falling, partial curve, poor fit]
Cc1cc(C)n(CC(=O)N/N=C/c2cc([N+](=O)[O-])ccc2O)n1 | inconclusive: 20.6 µM [falling, partial curve, poor fit]
COc1ccc2c(-c3ccccc3)cc(SCC(N)=O)nc2c1 | inconclusive: 29.1 µM [activator, single point]
CCc1ccc(NC(=O)CSc2ccc(-c3cccs3)nn2)cc1 | inactive
Cc1cc(Br)ccc1NC(=O)CNC(=O)Cn1ncc(Cl)c(Cl)c1=O | inactive
CC(C)C(=O)Nc1cccc(COc2ccc(CN(Cc3ccccc3)C(=O)OC(C)(C)C)cc2)c1 | active: 16.4 µM
C[C@H](NC(=O)c1nc[nH]c1C(=O)N[C@@H](Cc1ccccc1)C(=O)OC(C)(C)C)C(=O)OC(C)(C)C | inconclusive: 23.1 µM [falling, single point]
S=C(Nc1ccccc1Cl)N(Cc1ccccc1)Cc1cccnc1 | inconclusive: 16.4 µM [falling, single point]
O=C(c1ccncc1)N1N=C(c2ccc(Br)cc2)CC1c1ccccc1O (centres undefined) | inconclusive: 18.4 µM [falling, single point]
CC(=O)N1N=C(c2ccccc2)CC1c1cn(Cc2ccccc2)c2ccccc12 (centres undefined) | inconclusive: 20.6 µM [falling, single point]
CCN1CC=C2C(C1)C(c1ccc(Cl)s1)C(C#N)=C(N)C2(C#N)C#N (centres undefined) | inactive
Cc1ccc(Cl)cc1NC(=O)CCn1c(=O)c2cccn2c2cccnc21 | inactive
Cc1cc(C)n(-c2ccc(C(=O)Nc3ccc4c(c3)OCCO4)cc2)n1 | inconclusive: 23.1 µM [falling, partial curve, poor fit]
Cc1ccccc1OCCSc1nnc(-c2cccnc2)n1N | inconclusive: 25.9 µM [falling, single point]
Cc1ccc(C)c(COC(=O)c2cc(S(=O)(=O)N3CCCCC3)ccc2N2CCOCC2)c1 | inconclusive: 29.1 µM [falling, single point]
O=C1CC2(CCN(C(=O)C3CC(=O)N(c4ccccc4)C3)CC2)Oc2ccccc21 (centres undefined) | inactive
COc1ccc(CNCCC(c2ccc(F)cc2)c2ccc(OC)cc2)cc1 (centres undefined) | inactive
O=C(NCC1CCCO1)c1c(O)c2c([nH]c1=O)CCCC2 (centres undefined) | inconclusive: 5.17 µM [activator, partial curve, poor fit]

Sorted by SMILES length (ascending): 3 of the compounds above
Compound | Potency
CC(C)N(Cc1ccccc1)C(=S)NC1CCCCC1 | inconclusive: 14.6 µM [falling, partial curve, poor fit]
Cc1ccccc1OCCSc1nnc(-c2cccnc2)n1N | inconclusive: 25.9 µM [falling, single point]
Cc1cc(C)n(CC(=O)N/N=C/c2cc([N+](=O)[O-])ccc2O)n1 | inconclusive: 20.6 µM [falling, partial curve, poor fit]

Further results follow.

Compound | Potency
COc1ccc(NC(=O)CSc2nc(-c3cccs3)cc(C(F)(F)F)n2)c(OC)c1 | inconclusive: 18.4 µM [falling, single point]
Cc1ccc2nc(N/N=C/c3ccccc3F)nc(-c3ccccc3)c2c1 | inconclusive: 23.1 µM [falling, single point]
O=C(CSc1nc2ccccc2c(=O)[nH]1)N1CCN(c2ccccc2)CC1 | inconclusive: 5.17 µM [falling, partial curve]
Oc1ccc(NCc2cccs2)cc1 | inconclusive: 11.6 µM [falling, partial curve]
O=c1c(-c2ccc(Cl)cc2)cnc2n1CCS2 | inconclusive: 6.51 µM [activator, partial curve]
COC(=O)CCN(C1CCCCC1)S(=O)(=O)c1ccc(S(=O)(=O)NC2CCCCC2)cc1 | inconclusive: 29.1 µM [falling, single point]
Cc1ccc(Nc2n[nH]c(=S)s2)cc1F | inactive
COc1cc(CC(=O)O)ccc1OCc1ccccc1 | inconclusive: 32.6 µM [falling, single point]
CCOCc1c(C(=O)Nc2ccc3nc(N4CCOCC4)sc3c2)oc2ccccc12 | inconclusive: 25.9 µM [falling, single point]
CC(C)NC(=O)C1CCC(Cn2c(=O)c3sccc3n(CC(=O)Nc3ccccc3)c2=O)CC1 (centres undefined) | inconclusive: 32.6 µM [falling, single point]
C/C=C\C1=CCCC1Nc1ncnc2ccc(-c3c(C)noc3C)cc12 (centres undefined) | inconclusive: 16.4 µM [falling, single point]
O=[N+]([O-])c1ccc(N2CCN(CC(O)COc3ccccc3)CC2)cc1 (centres undefined) | inconclusive: 16.4 µM [falling, single point]
Cc1ccccc1C(=O)Nc1nc(-c2ccc(Br)cc2)ns1 | inconclusive: 18.4 µM [falling, single point]
COc1ccc2[nH]c3nc(SCC(=O)Nc4ccc5c(c4)OCO5)nnc3c2c1 | inconclusive: 10 µM [falling, partial curve]
Cc1cccc(-c2nc(CSc3nncn4c3cc3sccc34)c(C)o2)c1 | inactive
O=C(CSc1nnnn1-c1ccccc1)Nc1nsc(-c2ccccc2)n1 | inconclusive: 2.59 µM [activator, partial curve, poor fit]
CN(C)C(=O)CCSc1nnc(-c2ccco2)o1 | inconclusive: 29.1 µM [activator, single point]
CC(C)Oc1ccc(CNC(=O)C2CCN(C(=O)N3CC(C)Oc4ccccc43)CC2)cc1 (centres undefined) | inconclusive: 0.326 µM [falling, full curve, poor fit]
CC(C)n1c(SCc2ccccc2F)nc2c1c(=O)n(C)c(=O)n2C | inconclusive: 32.6 µM [falling, partial curve, poor fit]
N/C(=N\OC(=O)c1cccs1)c1cccc([N+](=O)[O-])c1 | inconclusive: 14.6 µM [activator, partial curve]
